For the assay, the system named is CD2F1 mice, L1210 leukemia ip, survival T/C. In words: NCI In Vivo Anticancer Drug Screen. Data for tumor model L1210 Leukemia (intraperitoneal) in CD2F1 (CDF1) mice. The following applies: higher T/C = longer survival. In short, it runs like this:
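Mice carrying a transplanted tumor received test compound or vehicle alone. The value is the measurement in the treated group divided by that in the vehicle-treated control group.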

[1] abbreviates: T/C endpoint: mean survival time, dose: 300.0 mg/kg/injection, schedule: Q01DX001 (ip), vehicle: other.
The mark [2] stands for this setting: T/C endpoint: mean survival time, dose: 100.0 mg/kg/injection, schedule: Q01DX009 (ip), vehicle: saline with Tween-80.
[3] abbreviates: T/C endpoint: mean survival time, dose: 200.0 mg/kg/injection, schedule: Q01DX009 (ip), vehicle: saline with Tween-80.
Where [4] appears, read: T/C endpoint: mean survival time, dose: 400.0 mg/kg/injection, schedule: Q01DX009 (ip), vehicle: saline with Tween-80.

The list is a part of this screen's results and no random one: it gathers tests that were run many times, whatever their T/C, doses with no T/C, and many T/C values between a quarter and a half above the control. Further doses and runs are listed elsewhere. T/C gives the treated animals as a percentage of the vehicle group. Some doses have a count of surviving animals in place of a T/C: the source files T/C as zero there, which appears to mark a toxic dose or a test without result, not a measured value. Some survivor counts are full or nearly so, which does not show that the dose was tolerated: the source hardly ever lists a survival T/C far under the control, and the zero likely stands for such cases as well. Counts of survivors are from the toxicity check (mostly the fifth day) where no day follows; animals may have died later. Schedule codes are those of the source, taken here to give the interval after Q, in days (D) or hours (H), and the number of doses after X. For survival time, the PubChem record calls one and a half times the control and up active, and a quarter to a half above the control has no call in these data; cut-offs in other NCI protocols can differ. Signs of the kind (2×) count equal records among those shown. Some T/C values are followed by the survivors on the day toxicity was checked, most often the fifth; without a count, all were alive then. Some entries hold several experiments; their values stand side by side, smallest first.

With `C/C=C1/C[N+]2(C)CCC34C(=C(C(=O)OC)C1CC32)Nc1ccc(O)cc14` (centres undefined), the survivor count was 1 of 6 (T/C endpoint: mean survival time, dose: 100.0 mg/kg/injection, schedule: Q01DX001 (ip), vehicle: saline with Tween-80); 0 of 6 (T/C endpoint: mean survival time, dose: 200.0 mg/kg/injection, schedule: Q01DX001 (ip), vehicle: saline with Tween-80); 0 of 5 (T/C endpoint: mean survival time, dose: 400.0 mg/kg/injection, schedule: Q01DX001 (ip), vehicle: saline with Tween-80).

Regarding `CCC(/C=C1\Oc2ccc(-c3ccccc3)cc2N1CC)=C\c1oc2ccc(-c3ccccc3)cc2[n+]1CC`, the survivor count is, setting by setting: (T/C endpoint: mean survival time, dose: 6.6 mg/kg/injection, schedule: Q01DX009 (ip), vehicle: other) 3 of 6; (T/C endpoint: mean survival time, dose: 10.0 mg/kg/injection, schedule: Q01DX009 (ip), vehicle: other) 0 of 6; (T/C endpoint: mean survival time, dose: 15.0 mg/kg/injection, schedule: Q01DX009 (ip), vehicle: other) 0 of 6; (T/C endpoint: mean survival time, dose: 75.0 mg/kg/injection, schedule: Q01DX001 (ip), vehicle: other) 0 of 6; (T/C endpoint: mean survival time, dose: 150.0 mg/kg/injection, schedule: Q01DX001 (ip), vehicle: other) 0 of 6; under setting [1], 0 of 6.

In the case of `CC(C)(C)c1ccc(-c2ccncc2)cc1`, the survivor count (T/C endpoint: mean survival time, dose: 400.0 mg/kg/injection, schedule: Q04DX002 (ip), vehicle: saline with Tween-80) is given as 0 of 3.

Turning to `C/C=C/CC1(Cc2ccccc2)C(=O)NC(=S)NC1=O`, the survivor count (T/C endpoint: mean survival time, dose: 38.0 mg/kg/injection, schedule: Q01DX001 (ip), vehicle: other) was 3 of 6.

For the molecule `O=C(O)c1cc(C(=O)O)c(C(=O)O)cc1C(=O)O.[NH2-].[NH2-].[NH2-].[NH2-].[Pt+2].[Pt+2]`, the T/C is, setting by setting: (T/C endpoint: mean survival time, dose: 0.78 mg/kg/injection, schedule: Q04DX003 (ip), vehicle: water) 128 and 131 % of control; (T/C endpoint: median survival time, dose: 16.0 mg/kg/injection, schedule: Q01DX009 (ip), vehicle: water) 125 % of control. Moreover, the survivor count is reported as 6 of 6 (T/C endpoint: mean survival time, dose: 3.12 mg/kg/injection, schedule: Q04DX003 (ip), vehicle: distilled water + Tween-80); 6 of 6 (T/C endpoint: mean survival time, dose: 6.25 mg/kg/injection, schedule: Q04DX003 (ip), vehicle: distilled water + Tween-80); 0 of 6 (T/C endpoint: mean survival time, dose: 12.5 mg/kg/injection, schedule: Q04DX003 (ip), vehicle: distilled water + Tween-80); 0 of 6 (T/C endpoint: mean survival time, dose: 25.0 mg/kg/injection, schedule: Q04DX003 (ip), vehicle: distilled water + Tween-80); 0 of 6 (T/C endpoint: mean survival time, dose: 50.0 mg/kg/injection, schedule: Q04DX003 (ip), vehicle: distilled water + Tween-80); 0 of 6 (T/C endpoint: mean survival time, dose: 100.0 mg/kg/injection, schedule: Q04DX003 (ip), vehicle: distilled water + Tween-80). For the same molecule, the survivor count (T/C endpoint: mean survival time, dose: 200.0 mg/kg/injection, schedule: Q04DX003 (ip), vehicle: distilled water + Tween-80) was 0 of 6 and the survivor count (T/C endpoint: median survival time, dose: 64.0 mg/kg/injection, schedule: Q01DX009 (ip), vehicle: water) is on record as 0 of 6.

`CNC(=O)c1nc2c(nc1NC)n(C)c(=O)n2C`: the survivor count (T/C endpoint: mean survival time, dose: 100.0 mg/kg/injection, schedule: Q01DX005 (ip), vehicle: other) is 6 of 6 and the survivor count (T/C endpoint: mean survival time, dose: 200.0 mg/kg/injection, schedule: Q01DX005 (ip), vehicle: other) is 4 of 6.

Turning to `O=C(O)C(=O)O.[NH-]C(c1ccccc1)C([NH-])c1ccccc1.[Pt+2]` (centres undefined), under “T/C endpoint: mean survival time, dose: 25.0 mg/kg/injection, schedule: Q04DX003 (ip), vehicle: saline with Tween-80”, the T/C was 131 % of control.

`CC(=O)OCC1OC(c2nn(C(C)=O)c(C(N)=O)c2O)C(OC(C)=O)C1OC(C)=O` (centres undefined): the T/C (T/C endpoint: median survival time, dose: 6.25 mg/kg/injection, schedule: Q01DX005 (ip), vehicle: saline) is 133 % of control and the T/C (T/C endpoint: median survival time, dose: 12.5 mg/kg/injection, schedule: Q01DX005 (ip), vehicle: saline) was 137 % of control.

As to `O=C1c2ccccc2C(Cl)=C(Cl)C1(Cl)Cl`, the survivor count runs as follows: under setting [2], 3 of 6; under setting [3], 0 of 6; (T/C endpoint: mean survival time, dose: 200.0 mg/kg/injection, schedule: Q04DX003 (ip), vehicle: saline with Tween-80) 2 of 6; under setting [4], 1 of 6.

Regarding `COC(=O)c1ccc(N(C)C/C(CN2C(=O)c3ccccc3C2=O)=N\O)cc1`, the survivor count under setting [1] was 0 of 6.

Turning to `Cc1cc2c(=O)cc(-c3ccccc3)oc2c(C(=O)O)c1C`, the survivor count (T/C endpoint: median survival time, dose: 500.0 mg/kg/injection, schedule: Q01DX005 (ip), vehicle: saline with Tween-80) is recorded as 0 of 6.

On to `COC(C(=O)C(O)C(C)O)C1CC2C=C3C=C(OC4CC(OC5CC(O)C(OC)C(C)O5)C(OC(C)=O)C(C)O4)C(C)C(=O)C3=C(O)C2=C(O)C1OC1CC(OC2CC(OC3CC(C)(O)C(O)C(C)O3)C(O)C(C)O2)C(O)C(C)O1` (centres undefined), for which the T/C was 129 % of control (T/C endpoint: mean survival time, dose: 0.25 mg/kg/injection, schedule: Q01DX009 (ip), vehicle: saline); 128 % of control [5 of 6 alive] (T/C endpoint: mean survival time, dose: 1.0 mg/kg/injection, schedule: Q01DX009 (ip), vehicle: saline with Tween-80); 134 % of control (T/C endpoint: mean survival time, dose: 2.0 mg/kg/injection, schedule: Q01DX009 (ip), vehicle: saline with Tween-80); 126 % of control (T/C endpoint: mean survival time, dose: 2.0 mg/kg/injection, schedule: Q01DX009 (ip), vehicle: saline); 126 % of control [5 of 6 alive] (T/C endpoint: mean survival time, dose: 4.0 mg/kg/injection, schedule: Q01DX009 (ip), vehicle: saline with Tween-80); 125 % of control (2×) (T/C endpoint: mean survival time, dose: 8.0 mg/kg/injection, schedule: Q01DX009 (ip), vehicle: saline with Tween-80).

Turning to `CC(=O)Nc1ccc(O)c(O)c1`, the T/C is 92, 98, 113, 135 % of control (T/C endpoint: mean survival time, dose: 12.5 mg/kg/injection, schedule: Q01DX009 (ip), vehicle: saline with Tween-80); 95, 102 [5 of 6 alive], 106, 108 % of control (T/C endpoint: mean survival time, dose: 25.0 mg/kg/injection, schedule: Q01DX009 (ip), vehicle: saline with Tween-80); 99 [5 of 6 alive], 107, 107 [5 of 6 alive], 111 % of control (T/C endpoint: mean survival time, dose: 50.0 mg/kg/injection, schedule: Q01DX009 (ip), vehicle: saline with Tween-80); 100, 108, 115, 118 % of control under setting [2]; 113, 117, 118, 120 % of control under setting [3]; 121, 126 [5 of 6 alive], 132, 134 % of control under setting [4].

Values taken from PubChem BioAssay AID256 (DTP/NCI, 2004).
